Results are given in words; binding and its absence hold for the method and conditions named. In cells and extracts the contact can be indirect. Here binding means that the protein was enriched with, or labelled near, the bait; the list need not be complete.

Chains of the proteins cited; added tags and fusions are not shown. Lines headed by an entry give the natural chain unless they say otherwise; changes in a name come on top. Residues count along the entry.
UniProt Q03391, residues 28-1323: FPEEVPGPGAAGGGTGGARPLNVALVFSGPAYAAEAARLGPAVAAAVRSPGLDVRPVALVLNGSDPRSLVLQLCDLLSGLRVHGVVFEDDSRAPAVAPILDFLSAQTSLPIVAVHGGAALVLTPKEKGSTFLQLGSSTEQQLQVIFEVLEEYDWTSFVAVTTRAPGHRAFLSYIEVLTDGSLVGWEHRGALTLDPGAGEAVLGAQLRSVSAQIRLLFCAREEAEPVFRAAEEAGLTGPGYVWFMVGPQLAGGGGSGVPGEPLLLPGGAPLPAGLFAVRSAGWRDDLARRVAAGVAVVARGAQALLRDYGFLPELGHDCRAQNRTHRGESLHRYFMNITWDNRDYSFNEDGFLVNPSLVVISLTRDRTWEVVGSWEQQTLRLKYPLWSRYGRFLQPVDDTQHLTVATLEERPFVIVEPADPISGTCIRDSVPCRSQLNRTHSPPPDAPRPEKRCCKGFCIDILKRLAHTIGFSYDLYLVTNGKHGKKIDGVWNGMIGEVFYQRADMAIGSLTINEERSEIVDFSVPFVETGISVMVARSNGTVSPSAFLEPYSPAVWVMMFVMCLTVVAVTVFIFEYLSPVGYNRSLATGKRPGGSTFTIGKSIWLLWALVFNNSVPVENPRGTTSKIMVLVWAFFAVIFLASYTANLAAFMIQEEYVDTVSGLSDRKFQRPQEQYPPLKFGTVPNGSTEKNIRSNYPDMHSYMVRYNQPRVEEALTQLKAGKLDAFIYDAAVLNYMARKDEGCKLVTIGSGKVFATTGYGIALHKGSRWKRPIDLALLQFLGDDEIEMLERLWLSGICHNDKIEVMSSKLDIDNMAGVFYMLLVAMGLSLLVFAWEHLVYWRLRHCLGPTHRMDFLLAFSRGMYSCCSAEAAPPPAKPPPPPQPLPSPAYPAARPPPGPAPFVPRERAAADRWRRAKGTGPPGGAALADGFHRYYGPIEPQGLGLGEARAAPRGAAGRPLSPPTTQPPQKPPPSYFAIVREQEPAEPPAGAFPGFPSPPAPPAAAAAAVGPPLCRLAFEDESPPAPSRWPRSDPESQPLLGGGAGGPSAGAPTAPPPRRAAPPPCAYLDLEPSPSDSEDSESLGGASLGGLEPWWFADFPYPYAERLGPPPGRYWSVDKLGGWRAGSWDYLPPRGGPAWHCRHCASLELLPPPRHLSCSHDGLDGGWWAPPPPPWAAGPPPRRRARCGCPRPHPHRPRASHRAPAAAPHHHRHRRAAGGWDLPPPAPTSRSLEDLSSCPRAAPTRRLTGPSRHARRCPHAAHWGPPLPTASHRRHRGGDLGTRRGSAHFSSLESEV
UniProt Q8VCQ8: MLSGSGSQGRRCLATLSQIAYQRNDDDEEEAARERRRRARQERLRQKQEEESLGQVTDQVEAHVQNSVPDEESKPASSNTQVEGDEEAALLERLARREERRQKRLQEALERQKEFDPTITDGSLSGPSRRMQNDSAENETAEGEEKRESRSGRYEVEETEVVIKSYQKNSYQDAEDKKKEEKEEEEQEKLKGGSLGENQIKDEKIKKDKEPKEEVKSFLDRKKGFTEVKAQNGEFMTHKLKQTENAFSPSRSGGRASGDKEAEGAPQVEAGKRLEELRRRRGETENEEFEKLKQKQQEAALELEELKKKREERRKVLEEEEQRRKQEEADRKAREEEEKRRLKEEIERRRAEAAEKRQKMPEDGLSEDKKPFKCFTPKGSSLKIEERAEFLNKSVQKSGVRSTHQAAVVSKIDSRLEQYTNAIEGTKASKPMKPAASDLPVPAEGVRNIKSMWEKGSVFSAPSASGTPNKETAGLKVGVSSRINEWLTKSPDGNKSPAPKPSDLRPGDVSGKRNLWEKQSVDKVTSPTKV

The experiment concerns the target GluN2D (NMDA receptor subunit, encoded by Grin2d), expressed as Grin2d-3XFlag (UniProt Q03391). The experiment in a line: affinity purification with mass spectrometry; RIPA lysate of cultured mouse brain SMCs transduced with Grin2d-3XFlag lentivirus; anti-GluN2D or IgG control antibodies on Protein G Magnetic Beads; eluates analysed by mass spectrometry.

Turning to “caldesmon (encoded by Cald1) (from UniProt Q8VCQ8)”, the binding entry was “binds”.

(Values after paper PMC13503848.)
